Here are results for 20 compounds from the supplement of paper PMC12889115.

For this test, the system named is Salmonella enterica serovar Typhimurium SL1344. The test can be described thus: bacterial growth OD600 after 18 h with compound and polymyxin B; higher = more bacterial growth (less inhibition). The note with it: 50 µM, Mueller-Hinton broth.

Some of the results follow. Values are raw readings; no control value is given beside them.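 First-pass screen: polymyxin B was added at a level that permeabilizes the Salmonella outer membrane while sparing the inner membrane. DMSO wells, with and without polymyxin B, defined maximum growth. Because plates differed from one another, each plate's data were ranked separately and the compounds with the lowest OD600 were carried forward as hits.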

Turning to `CC(C)Cn1c(CN(C)CCOc2ccccc2)cnc1S(C)(=O)=O`, the “bacterial growth OD600” value (polymyxin B 1 µg/mL) is 0.859.

For the compound `CCOC(=O)C1(Cc2ccc(F)cc2)CCCN(C(=O)c2ccccc2C(C)=O)C1` (stereo not given), the “bacterial growth OD600” value (polymyxin B 1 µg/mL) was 0.881. On the same count and under the same terms, for `CCOC(=O)C1(Cc2ccc(F)cc2F)CCCN(C2CCN(C(C)=O)CC2)C1` (stereo not given) the value was 0.727; for `CN1CCN([C@@H]2CCN(CCCC3CCCC3)C[C@H]2O)CC1`, 1.1. The same measure, in the same setting: for `COc1cc(C)ccc1OCc1nc(C(=O)NC2CCOC(C)(C)C2)co1` (stereo not given) the value was 0.975.

In the case of `O=C(CCOc1ccccc1)Nc1ccnn1C1CCN(C(=O)c2cnsn2)CC1`, the “bacterial growth OD600” value (polymyxin B 1 µg/mL) is 0.84. Regarding `O=C(NCc1ccsc1)c1cc(COc2ccc3c(c2)OCO3)[nH]n1`, where the note is “polymyxin B 1 µg/mL”, the “bacterial growth OD600” value turned out to be 0.742. Still for that read-out and setting: for `CCOc1ccccc1N1CCN(Cc2nc(-c3cccc(Cl)c3)no2)CC1` the value was 1.13.

Turning to `O=C(C1CCCN(Cc2nc(-c3ccc4c(c3)OCO4)no2)C1)N1CCOCC1` (stereo not given), under “polymyxin B 1 µg/mL”, the “bacterial growth OD600” value was found to be 0.851. Turning to `Cn1cc(CN2CCc3onc(-c4ccc(-c5ccccc5)cc4)c3C2)cn1`, under “polymyxin B 0.75 µg/mL”, the “bacterial growth OD600” value came to 0.426. In the case of `CN(CC1CCCN(CCc2ccccc2F)C1)C(=O)c1cc2ncccn2n1` (stereo not given), the “bacterial growth OD600” value (polymyxin B 1 µg/mL) stood at 1.1. Take `C=CCn1cc(CN2CCC(C(=O)Nc3ccc(Oc4cccnc4)cc3)CC2)c(C)n1`: the “bacterial growth OD600” value (polymyxin B 1 µg/mL) turned out to be 0.839. Still for that read-out and setting: for `O=C(Cc1c[nH]c2ccccc12)NCc1cccnc1N1CCOCC1` the value was 0.867. Consider `CCN(CC)C(=O)CC1(c2ccccc2Cl)CC(=O)N(CCCOC)C1=O` (stereo not given), for which the “bacterial growth OD600” value (polymyxin B 0.75 µg/mL) is 0.776. In the case of `O[C@@H]1CN(Cc2cc(F)ccc2-n2cccn2)CC[C@H]1N1CCN(c2ccccn2)CC1`, the “bacterial growth OD600” value (polymyxin B 1 µg/mL) is 0.957. On to `Cc1ccccc1-c1nn(-c2ccc(F)cc2F)cc1CN(C)C1CCOC1` (stereo not given), for which the “bacterial growth OD600” value (polymyxin B 0.75 µg/mL) was determined as 0.636. For the compound `COc1ccccc1CCN1CCCC(CN(C)Cc2cccn2-c2ncccn2)C1` (stereo not given), the “bacterial growth OD600” value (polymyxin B 1 µg/mL) was 0.742. Consider `O=C(Nc1ccc(Oc2cccnc2)cc1)C1CCCCN1Cc1ccc(F)cc1` (stereo not given), for which the “bacterial growth OD600” value (polymyxin B 1 µg/mL) amounted to 0.829. Same read-out and setting: for `COc1ccc(F)c(CNCc2cccnc2N(C)C2CCCCC2)c1` the value was 1.07; for `COc1cccc(NC(=O)CCC2CCN(C(=O)C(C)Cn3cccn3)CC2)c1` (stereo not given), 0.899.
